## Primary screen of a compound library

The chains behind the UniProt entries cited, without tags or fusion partners. Residues count along the entry.
UniProt P9WPC5, whole entry: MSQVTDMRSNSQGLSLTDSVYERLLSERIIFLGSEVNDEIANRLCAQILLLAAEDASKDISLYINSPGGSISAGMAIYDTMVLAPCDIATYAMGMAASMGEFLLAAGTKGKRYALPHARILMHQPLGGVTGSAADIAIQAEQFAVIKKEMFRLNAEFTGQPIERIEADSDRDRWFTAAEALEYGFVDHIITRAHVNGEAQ
UniProt P9WPC3, whole entry partner: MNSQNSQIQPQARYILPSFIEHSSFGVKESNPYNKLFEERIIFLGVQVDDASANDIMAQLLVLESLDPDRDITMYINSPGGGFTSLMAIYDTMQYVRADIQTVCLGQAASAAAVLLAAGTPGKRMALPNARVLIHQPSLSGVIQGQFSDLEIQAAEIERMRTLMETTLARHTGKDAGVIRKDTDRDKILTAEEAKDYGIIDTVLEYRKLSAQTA
UniProt P9WFT3, whole entry: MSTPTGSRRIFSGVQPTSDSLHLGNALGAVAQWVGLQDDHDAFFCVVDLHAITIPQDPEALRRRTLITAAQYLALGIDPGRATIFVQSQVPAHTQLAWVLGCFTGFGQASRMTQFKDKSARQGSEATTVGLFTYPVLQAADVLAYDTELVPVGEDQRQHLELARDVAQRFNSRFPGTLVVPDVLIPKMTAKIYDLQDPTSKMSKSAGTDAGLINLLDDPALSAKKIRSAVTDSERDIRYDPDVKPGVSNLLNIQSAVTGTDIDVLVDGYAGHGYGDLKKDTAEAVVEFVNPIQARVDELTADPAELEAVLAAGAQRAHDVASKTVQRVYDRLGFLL
UniProt I6X8D2, whole entry: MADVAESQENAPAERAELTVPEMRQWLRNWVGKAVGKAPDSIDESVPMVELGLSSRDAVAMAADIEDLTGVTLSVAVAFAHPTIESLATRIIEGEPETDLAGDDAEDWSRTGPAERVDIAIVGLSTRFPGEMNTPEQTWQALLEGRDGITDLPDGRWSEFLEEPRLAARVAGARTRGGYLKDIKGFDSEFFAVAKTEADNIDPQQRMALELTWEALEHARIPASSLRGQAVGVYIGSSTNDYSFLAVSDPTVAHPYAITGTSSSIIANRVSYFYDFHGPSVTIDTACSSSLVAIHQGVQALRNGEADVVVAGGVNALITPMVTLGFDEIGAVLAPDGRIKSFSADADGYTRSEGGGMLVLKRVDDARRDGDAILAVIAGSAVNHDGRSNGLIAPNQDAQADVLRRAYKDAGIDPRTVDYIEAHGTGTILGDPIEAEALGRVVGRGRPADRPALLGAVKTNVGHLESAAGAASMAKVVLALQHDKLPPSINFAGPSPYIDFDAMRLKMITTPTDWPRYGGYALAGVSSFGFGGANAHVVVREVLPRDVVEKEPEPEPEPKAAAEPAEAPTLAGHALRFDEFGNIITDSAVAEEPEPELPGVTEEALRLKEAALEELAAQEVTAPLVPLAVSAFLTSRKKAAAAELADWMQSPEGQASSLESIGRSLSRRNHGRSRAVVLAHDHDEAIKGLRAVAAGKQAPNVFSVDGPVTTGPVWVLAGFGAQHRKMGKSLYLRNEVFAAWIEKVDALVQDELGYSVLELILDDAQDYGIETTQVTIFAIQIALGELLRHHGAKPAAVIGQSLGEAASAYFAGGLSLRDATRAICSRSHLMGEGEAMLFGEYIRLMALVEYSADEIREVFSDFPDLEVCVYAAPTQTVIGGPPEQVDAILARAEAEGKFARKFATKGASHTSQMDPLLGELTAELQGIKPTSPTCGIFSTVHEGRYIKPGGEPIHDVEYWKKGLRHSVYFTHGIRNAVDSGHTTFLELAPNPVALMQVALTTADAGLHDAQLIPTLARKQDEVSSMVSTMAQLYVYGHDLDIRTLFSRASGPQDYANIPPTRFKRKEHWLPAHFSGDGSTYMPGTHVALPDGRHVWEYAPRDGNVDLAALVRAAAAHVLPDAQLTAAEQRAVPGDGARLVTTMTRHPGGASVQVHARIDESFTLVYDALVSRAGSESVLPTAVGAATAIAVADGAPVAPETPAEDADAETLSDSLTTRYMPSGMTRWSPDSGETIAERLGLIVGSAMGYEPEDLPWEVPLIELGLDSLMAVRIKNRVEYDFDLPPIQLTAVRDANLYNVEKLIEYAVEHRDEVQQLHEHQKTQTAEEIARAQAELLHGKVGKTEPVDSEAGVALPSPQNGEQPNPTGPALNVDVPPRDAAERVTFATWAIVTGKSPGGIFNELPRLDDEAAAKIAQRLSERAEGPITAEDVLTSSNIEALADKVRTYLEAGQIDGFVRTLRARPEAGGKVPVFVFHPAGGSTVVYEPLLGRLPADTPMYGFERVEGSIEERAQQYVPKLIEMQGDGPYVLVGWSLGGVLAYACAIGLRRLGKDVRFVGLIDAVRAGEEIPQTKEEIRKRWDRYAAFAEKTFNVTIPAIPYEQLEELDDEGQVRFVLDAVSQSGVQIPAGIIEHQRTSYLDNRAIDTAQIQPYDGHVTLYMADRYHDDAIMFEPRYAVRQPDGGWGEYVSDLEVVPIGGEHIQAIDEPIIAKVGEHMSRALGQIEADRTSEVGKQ
UniProt Q8IDJ8, 1-583: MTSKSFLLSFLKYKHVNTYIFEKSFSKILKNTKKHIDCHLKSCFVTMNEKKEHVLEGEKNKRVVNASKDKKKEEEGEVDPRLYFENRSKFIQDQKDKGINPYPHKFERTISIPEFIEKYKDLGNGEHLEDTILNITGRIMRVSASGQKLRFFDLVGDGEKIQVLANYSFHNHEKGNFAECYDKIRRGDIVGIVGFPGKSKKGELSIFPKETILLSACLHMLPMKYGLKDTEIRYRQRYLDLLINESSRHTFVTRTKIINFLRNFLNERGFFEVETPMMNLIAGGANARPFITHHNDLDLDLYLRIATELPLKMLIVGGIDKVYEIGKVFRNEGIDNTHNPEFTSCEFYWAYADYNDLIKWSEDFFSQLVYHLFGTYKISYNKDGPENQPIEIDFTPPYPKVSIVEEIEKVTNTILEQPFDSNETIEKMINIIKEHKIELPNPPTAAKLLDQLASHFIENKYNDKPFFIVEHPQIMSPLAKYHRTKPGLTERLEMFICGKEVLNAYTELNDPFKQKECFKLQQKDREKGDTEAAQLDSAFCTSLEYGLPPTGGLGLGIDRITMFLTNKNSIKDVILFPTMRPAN

The values are deposited in ChEMBL (CHEMBL3988442, “University of Dundee, Small-Polar-MMV Screening Library” (2021)).

ClpP1P2: 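ClpP1P2, Mycobacterium tuberculosis (UniProt P9WPC5 and UniProt P9WPC3). Protease assay of ClpP1P2, read by the AMC dye that it sets free. Tested at 50 µM. Higher reads as stronger inhibition, judged from the few compounds that gave an IC50. Most other retested compounds had strongly negative values. Of about 69,000 compounds tested this way, about 10 (0.015%) reached 50% or more in at least one test.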
MtTrpRS: 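Tryptophan-tRNA ligase, Mycobacterium tuberculosis (UniProt P9WFT3). Enzyme assay of tryptophanyl-tRNA synthetase; the read-out is not stated. Concentration: 10 µM. Direction is not recorded; retested compounds ran higher, which suggests that high means inhibition. About 65,000 compounds were tested under these conditions; 0.098% (about 64) showed 50% or more at least once.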
Pks13 thioesterase: 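Enzyme assay of the thioesterase domain of polyketide synthase 13; the read-out is not stated. Target: Polyketide synthase Pks13, Mycobacterium tuberculosis (UniProt I6X8D2). Compounds at 30 µM. Higher reads as stronger inhibition (inferred from which compounds were picked for retests). Size under these conditions: about 67,000 compounds, about 300 of them at 50% or above in at least one test.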
PfKRS1: 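Enzyme assay of the cytosolic lysyl-tRNA synthetase in 384-well plates, read by luminescence. Target: Lysine-tRNA ligase, Plasmodium falciparum 3D7 (UniProt Q8IDJ8). Tested at 30 µM. Higher reads as stronger inhibition, judged from the few compounds that gave an IC50. Size under these conditions: about 69,000 compounds, about 49 of them at 50% or above in at least one test.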

Each number is a percent effect as filed.
How 0% and 100% were set is not recorded. Most values in the screen are low, and negative values occur.
This is an unselected part of the compounds tested.

Result for N#Cc1c(SCCN2CCOCC2)sc2c(O)cc(O)nc12 was ClpP1P2: 18.28%; Pks13 thioesterase: 1.847%; PfKRS1: 7.697%. With COCC(=O)N1CCN(C)CC(Cc2cc(N(C)C)ncn2)C1 (stereo not given) the screen gave ClpP1P2: -31.52%; MtTrpRS: -2.467%; Pks13 thioesterase: 2.755%; PfKRS1: -0.6097%. CCN(C(=O)CN(C)C(c1cccc(F)c1)c1ccccn1)C1CC1 (stereo not given) read ClpP1P2: -5.253%; MtTrpRS: -1.039%; Pks13 thioesterase: -16.55%; PfKRS1: -2.748%. For O=C(CNc1nc(C2CC2)ns1)N1CCc2sccc2C1 the result was ClpP1P2: 0.6302%; MtTrpRS: 2.414%; Pks13 thioesterase: 4.626%; PfKRS1: 7.922%. For COc1ccccc1OC1CCN(C(=O)c2cnc(C)cc2C)CC1 the result was ClpP1P2: 7.876%; MtTrpRS: -1.503%; Pks13 thioesterase: -31.16%; PfKRS1: 5.386%. COCCC(=O)N1CCC2(COCc3cnc(-c4ccccc4)nc32)C1 (stereo not given) read ClpP1P2: -2.355%; MtTrpRS: 0.5286%; Pks13 thioesterase: -29.45%; PfKRS1: -1.084%.

Result for CN(C)S(=O)(=O)N1CCCC(C)(c2ncc(C(N)=O)s2)C1 (stereo not given) was ClpP1P2: -13.52%; MtTrpRS: 0.8587%; Pks13 thioesterase: 0.7437%; PfKRS1: 0.03051%. CCc1cc(=O)[nH]c2nnc(SCC(=O)NC(C)C)n12 gave ClpP1P2: 8.553%; MtTrpRS: 0.6255%; Pks13 thioesterase: -14.57%; PfKRS1: -2.224%. CCOc1cc(Cl)ccc1CNC(=O)N1CCCC(CO)C1 (stereo not given) read ClpP1P2: -5.214%; MtTrpRS: -6.075%; Pks13 thioesterase: -19.3%; PfKRS1: 4.489%. For CN1CC2(CCN(C(=O)c3[nH]cnc3-c3ccccc3)C2)OC1=O (stereo not given) the result was ClpP1P2: -10.18%; MtTrpRS: -0.1575%; Pks13 thioesterase: 1.076%; PfKRS1: 3.297%. With CN(C)Cc1nnc(C(=O)N(C)Cc2ccc(F)cc2)o1 the screen gave ClpP1P2: 5.666%; MtTrpRS: -4.125%; Pks13 thioesterase: 9.383%; PfKRS1: 4.765%. Cc1ccc(CN2CCCC(c3nnc(CN4CCCC4)n3C)C2)s1 (stereo not given) gave ClpP1P2: 0.6745%; MtTrpRS: 3.261%; Pks13 thioesterase: -3.976%; PfKRS1: 10.28%.

Cc1ccc(C)c(OC(C)C(=O)NCCNc2cccnc2)c1 (stereo not given) read ClpP1P2: 3.195%; MtTrpRS: 4.44%; Pks13 thioesterase: 3.007%; PfKRS1: 10.43%. CC(C)(O)CN1CCN(C(=O)c2sccc2C2CC2)CC1 read ClpP1P2: 3.664%; MtTrpRS: 4.971%; Pks13 thioesterase: -5.293%; PfKRS1: 5.589%. Result for COc1cccc2c1OCC(C(=O)NCc1ncc3c(n1)CCC3)C2 (stereo not given) was ClpP1P2: -4.482%; MtTrpRS: 3.207%; Pks13 thioesterase: -12.07%; PfKRS1: 5.618%. Result for O=C(NCCNS(=O)(=O)c1ccc(C(F)(F)F)cc1)c1ccoc1 was ClpP1P2: 1.697%; MtTrpRS: -2.189%; Pks13 thioesterase: -1.714%; PfKRS1: 6.085%. Cc1c(C(=O)NCCC(C)C)nnn1-c1cccc2c1CCN(C)C2 read ClpP1P2: 5.59%; MtTrpRS: 3.838%; Pks13 thioesterase: 5.849%; PfKRS1: 4.735%. For Cc1nn(C)c(C)c1Cc1nc(N(C)C)no1 the result was ClpP1P2: -2.605%; MtTrpRS: 1.386%; Pks13 thioesterase: -7.182%; PfKRS1: 2.055%.

With Cc1nccn1CCN(C)C(=O)c1cn(CC2CCCCC2)nn1 the screen gave ClpP1P2: -13.97%; MtTrpRS: 0.000014%; Pks13 thioesterase: 12.37%; PfKRS1: 3.517%. Result for CCCS(=O)(=O)CCN1CCN(c2cc(F)ccc2F)CC1 was ClpP1P2: -11.86%; MtTrpRS: 0.7009%; Pks13 thioesterase: 13.27%; PfKRS1: 7.515%.

Some entries from above, unchanged:

CCCS(=O)(=O)CCN1CCN(c2cc(F)ccc2F)CC1 read ClpP1P2: -11.86%; MtTrpRS: 0.7009%; Pks13 thioesterase: 13.27%; PfKRS1: 7.515%.
CCOc1cc(Cl)ccc1CNC(=O)N1CCCC(CO)C1 (stereo not given) read ClpP1P2: -5.214%; MtTrpRS: -6.075%; Pks13 thioesterase: -19.3%; PfKRS1: 4.489%.